# According to patent US20170165274A1, “COMPOSITION” (SHIELD TX (UK) LTD., priority 2014, published 2017):
# Legend:
# [1] = system: tongue; assay: Taste test: solutions applied to areas of the tongue with a soaked cotton wool bud, blindfolded subjects; format: in vivo, human
# [2] = compared with sugar; cited from earlier work
# [3] = both concentrations pooled, 24 tests
# [4] = 10^−3 M and 10^−4 M pooled, 24 tests
# [5] = 10^−3 M, 12 tests (3 areas x 4 subjects)
# [6] = 10^−4 M, 12 tests (3 areas x 4 subjects)
molecule,measurement,setting,value
"O=S(=O)([O-])[O-].[Fe+2] [FeS04, iron sulphate, reference compound]",Number of tests perceived as c (sour/metallic),[1]; [3],12
same,Number of tests perceived as d (bitter and metallic),[1]; [3],7
same,Number of tests perceived as e (no taste),[1]; [3],5
"Cc1occc(=O)c1[O-].Cc1occc(=O)c1[O-].Cc1occc(=O)c1[O-].[Fe+3] [Fe[Maltol]3, ferric trimaltol]",Indistinguishable from tap water,[1]; [4],15 tests
same,Recognized as slightly metallic,[1]; [4],9 tests
same,Number of tests perceived as c (sour/metallic),[1]; [3],3
same,Number of tests perceived as d (bitter and metallic),[1]; [3],6
same,Number of tests perceived as e (no taste),[1]; [3],15
OC[C@@H](O)[C@@H](O[C@@H]1O[C@H](CO)[C@H](O)[C@H](O)[C@H]1O)[C@H](O)[C@@H](O)CO [Lactitol],Relative sweetness of sugar,[2],30-40%
OC[C@@H](O)[C@@H](O[C@H]1O[C@H](CO)[C@@H](O)[C@H](O)[C@H]1O)[C@H](O)[C@@H](O)CO [Maltitol],Relative sweetness of sugar,[2],75%
OC[C@@H](O)[C@@H](O)[C@H](O)[C@H](O)CO [Mannitol],Relative sweetness of sugar,[2],50-70%
O=S(=O)([O-])[O-].[Fe+2] [Solution 3],Number of tests perceived as c (sour/metallic),[1]; [5],8c
same,Number of tests perceived as d (bitter and metallic),[1]; [5],3 days
same,Number of tests perceived as e (no taste),[1]; [5],1e
O=S(=O)([O-])[O-].[Fe+2] [Solution 4],Number of tests perceived as c (sour/metallic),[1]; [6],4c
same,Number of tests perceived as d (bitter and metallic),[1]; [6],4 days
same,Number of tests perceived as e (no taste),[1]; [6],4e
Cc1occc(=O)c1[O-].Cc1occc(=O)c1[O-].Cc1occc(=O)c1[O-].[Fe+3] [Solution 5],Number of tests perceived as c (sour/metallic),[1]; [5],3c
same,Number of tests perceived as d (bitter and metallic),[1]; [5],4 days
same,Number of tests perceived as e (no taste),[1]; [5],5e
Cc1occc(=O)c1[O-].Cc1occc(=O)c1[O-].Cc1occc(=O)c1[O-].[Fe+3] [Solution 6],Number of tests perceived as d (bitter and metallic),[1]; [6],2 days
same,Number of tests perceived as e (no taste),[1]; [6],10e
OC[C@@H](O)[C@@H](O)[C@H](O)[C@@H](O)CO [Sorbitol],Relative sweetness of sugar,[2],50%
"OC[C@H]1O[C@@](CO)(O[C@H]2O[C@H](CO)[C@@H](O)[C@H](O)[C@H]2O)[C@@H](O)[C@@H]1O [Sugar, reference compound]",Number of tests perceived as a (sweet),[1]; [3],19
same,Number of tests perceived as e (no taste),[1]; [3],5
Isomalt,Relative sweetness of sugar,[2],45-65%
